Among all 300,000 compounds or so, about 5,400 (1.8%) were called active. The inconclusive results got no clear call from the source; some entries with a clear call stand among them for comparison. Calls follow the shape of the full dose curve; tested in HEK293 cells. Potencies of inconclusive entries are doubtful fits and often do not repeat.
Assay: qHTS for inhibitors of binding or entry into cells for Marburg Virus
Details: Marburg virus pseudotyped entry inhibition, cell reporter; activity change, negative = inhibition: at 37.8 µM (top of the series) unless noted
% is scaled to controls: 0 for no effect and ±100 for the full control effect; potency is read from the fitted curve at half-maximal effect.

| Compound | Potency | activity change, negative = inhibition |
| --- | --- | --- |
| CCOc1ccc(N(C(=O)c2ccccc2Cl)C2=NC(C)(C)CS2)cc1 | inconclusive: 35.5 µM [inhibitor, single point] |  |
| Cn1c(=O)n(C)c2cc(NS(=O)(=O)c3ccc4c(c3)CCCC4)ccc21 | inconclusive: 16.4 µM [inhibitor, single point] |  |
| O=C(Cn1c(C2CC2)nc2ccccc2c1=O)Nc1ccc(Br)cc1 | inconclusive: 29.1 µM [inhibitor, single point] |  |
| O=C(CNC(=O)c1cccs1)c1ccc(Cl)cc1 | inconclusive: 25.1 µM [inhibitor, single point] |  |
| COc1ccccc1CNC(=O)c1cccc(S(=O)(=O)N2CCCC2)c1 |  | inactive: 29.1% |
| CC(=O)NS(=O)(=O)c1cccnc1Nc1ccc(Cl)cc1 | inconclusive: 35.5 µM [activator, single point] |  |
| O=C1NC(=O)C(c2ccccc2[N+](=O)[O-])=C1Nc1ccc(O)c(Cl)c1 | inactive |  |
| O=C(CSc1nc2ncccc2[nH]1)c1cccc([N+](=O)[O-])c1 | inconclusive: 15.8 µM [inhibitor, single point] |  |
| CCC(C)(C)n1nnnc1C(c1cccnc1)N1CCN(c2cccc(C(F)(F)F)c2)CC1 (stereo not drawn) | active: 13 µM |  |
| COc1ccc(CN2C(=O)c3cccnc3C2Nc2cc(Cl)ccc2OC)cc1 (stereo not drawn) | inactive |  |
| CN1CCCC1=Nc1c2c(nc3ccccc13)N(C)CC2 | inconclusive: 4.47 µM [inhibitor, full curve, poor fit] |  |
| O=C(c1ccc(COc2ccccc2Br)o1)N1CCCCCC1 |  | inactive: -3.73% |
| CCc1cccc(C)c1NC(=O)CSc1nnc(Cc2csc(C)n2)o1 | inconclusive: 0.199 µM [inhibitor, full curve, poor fit] |  |
| Cc1ccc(N(CC(=O)NCCc2ccc(F)cc2)S(=O)(=O)c2ccc(Cl)c([N+](=O)[O-])c2)c(C)c1 | inconclusive: 29.1 µM [inhibitor, single point] |  |
| CC(C)(C)NC(=O)c1ccc(NC(=O)CSc2ccccc2)cc1 |  | inactive: 1.93% [at 46.1 µM] |
| CCOC(=O)/C=c1\s/c(=C\c2ccc(C(F)(F)F)cc2)c(=O)n1CC(=O)NCc1ccco1 | inconclusive: 8.91 µM [inhibitor, partial curve, poor fit] |  |
| C=CCc1ccc(OCC(O)CN2CCC(Cc3ccccc3)CC2)c(OC)c1 (stereo not drawn) | inconclusive: 17.8 µM [inhibitor, partial curve, poor fit] |  |
| COC1=CC2C(=O)C(C1=O)[C@H](c1ccccc1)[C@H]2C (stereo partly drawn) |  | inactive: -3.14% [at 14.2 µM] |
| O=C(/C=C/c1ccco1)Nc1scc(-c2ccccc2)c1C(=O)O | inconclusive: 3.55 µM [inhibitor, partial curve, poor fit] |  |
| CC(=O)c1ccc(N2CCN(C(=O)/C=C/c3ccc(S(=O)(=O)N4CCOCC4)cc3)CC2)cc1 | inconclusive: 5.62 µM [inhibitor, single point] |  |
| COc1cc(OC)c(S(=O)(=O)N2CCN(C(=O)c3ccco3)CC2)cc1NC(C)=O | inconclusive: 31.6 µM [activator, single point] |  |
| COC(=O)COc1ccc(S(=O)(=O)N2CCN(c3ccc(OC)cc3)CC2)cc1 |  | inconclusive: 14.6% [activator] [at 46.1 µM] |

Three structures out of the list, sorted by length of the SMILES, smallest number first.

| Compound | Potency | activity change, negative = inhibition |
| --- | --- | --- |
| O=C(Cn1c(C2CC2)nc2ccccc2c1=O)Nc1ccc(Br)cc1 | inconclusive: 29.1 µM [inhibitor, single point] |  |
| CCOC(=O)/C=c1\s/c(=C\c2ccc(C(F)(F)F)cc2)c(=O)n1CC(=O)NCc1ccco1 | inconclusive: 8.91 µM [inhibitor, partial curve, poor fit] |  |
| CC(=O)c1ccc(N2CCN(C(=O)/C=C/c3ccc(S(=O)(=O)N4CCOCC4)cc3)CC2)cc1 | inconclusive: 5.62 µM [inhibitor, single point] |  |

Remaining list, next part

| Compound | Potency | activity change, negative = inhibition |
| --- | --- | --- |
| COc1ccc(C2CC(c3cccs3)=NN2C(=O)CSc2nc3ccccc3s2)cc1 (stereo not drawn) | inconclusive: 14.1 µM [inhibitor, single point] |  |
| C=CCSc1ncnc2c1oc1nc3c(cc12)COC(C)(C)C3 |  | inactive: 7.71% [at 46.1 µM] |
| COC(=O)c1cc(NC(=O)Nc2cccc(Cl)c2)ccc1Cl | inconclusive: 20.6 µM [inhibitor, single point] |  |
| O=C(NCCc1ccccc1)C(c1ccncc1)N(C(=O)c1csnn1)C1CC1 (stereo not drawn) | inconclusive: 0.259 µM [inhibitor, single point] |  |
| CCOC(=O)C(CCCCCOc1ccccc1[N+](=O)[O-])C(=O)OCC | inconclusive: 0.447 µM [activator, partial curve, poor fit] |  |
| CC(C)NC(=S)NN=C1CCC(c2ccccc2)CC1 (stereo not drawn) | inconclusive: 0.891 µM [activator, full curve, poor fit] |  |
| Cc1ccc(NC(=O)CN2CCCC2c2cccn2C)cc1C (stereo not drawn) | inconclusive: 5.01 µM [inhibitor, full curve, poor fit] |  |
| COC(=O)c1c(NC(=O)COC(=O)Cn2cnc3ccccc32)sc(C)c1C |  | inactive: 9.52% [at 46.1 µM] |
| CCOC(=O)N1CCN(C(=O)CCl)CC1 | inconclusive: 2.51 µM [inhibitor, partial curve, poor fit] |  |
| Cc1oc(-c2ccccc2)nc1C(=O)OCC(=O)NC(=O)NCC(C)C | inconclusive: 35.5 µM [inhibitor, partial curve, poor fit] |  |
| CCOP(=O)(OCC)C(NC(=O)c1ccccc1C)C(Cl)(Cl)Cl (stereo not drawn) | inconclusive: 6.31 µM [activator, single point] |  |
| COC(=O)/C(=N/Nc1ccccc1)N1CCCc2ccccc21 | inconclusive: 8.91 µM [inhibitor, partial curve, poor fit] |  |
| C=CCn1c(=O)c2c(nc(Br)n2Cc2ccccc2Cl)n(C)c1=O |  | inactive: -21.3% |
| COC(=O)N/N=C/c1cccc(OCCSc2ccc(Cl)cc2)c1 | inconclusive: 35.5 µM [inhibitor, single point] |  |
| Clc1ccc(Sc2cnc3ccccc3n2)cc1 | inconclusive: 11.2 µM [activator, partial curve] |  |
| COc1cccc(NC(=S)NN2CCN(C)CC2)c1 |  | inactive: 6.89% |
| O=S(=O)(O)c1ccc(O)c2cc(Nc3ccccc3)ccc12 | inconclusive: 10 µM [inhibitor, partial curve, poor fit] |  |
| CC(C)CC(=NNC(=O)c1ccncc1)c1cc(Cl)ccc1O | inconclusive: 2.82 µM [inhibitor, full curve, poor fit] |  |
| COc1ccc(C2CC(c3ccc(Cl)cc3)=NN2C(=O)c2cccc([N+](=O)[O-])c2)cc1 (stereo not drawn) |  | inactive: -11.7% |
| Cc1ccc(/C=C/C(=O)Nc2nnc(C)s2)o1 |  | inactive: 25.3% |
| Cc1ccc(OC(=O)C2c3ccccc3Oc3ccccc32)cc1C | inconclusive: 18.4 µM [inhibitor, partial curve, poor fit] |  |
